According to PubChem BioAssay AID2417 (National Center for Advancing Translational Sciences (NCATS), 2010):
Out of some 140,000 compounds screened, about 4,300 (3.1%) were called active. The inconclusive results got no clear call from the source; some entries with a clear call stand among them for comparison.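 The calls were made as follows: active = readout at or below -70, meaning at least 70% loss of cells showing the perinucleolar compartment, a nuclear body marking cancer cells; inconclusive = readout between -30 and a set limit; inactive = the rest.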

Test: High Content Assay for Compounds that inhibit the Assembly of the Perinucleolar Compartment;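 also: plate controls were DMSO wells for no effect and camptothecin positive control wells for full effect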
Details: PC3M PTB-GFP, PNC prevalence imaging, 16 h; at 10 µM; stronger effect = lower value
Outline: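 PC3M cells stably expressing PTB-GFP, 750–1000 cells/well, treated 16 h at 37 °C with compound (23 nl of library stock), in duplicate. After paraformaldehyde fixation and Hoechst stain, imaged at 20x; PNC prevalence scored by image analysis.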
In the case of O=C(Cn1cnc2sc(-c3ccccc3)cc2c1=O)NCc1ccco1, the activity change (PNC), negative = inhibition is reported as active: -90.2%. With Cc1nc2c(C(=O)NCCc3ccccc3Cl)c[nH]n2c(=O)c1Cl the activity change (PNC), negative = inhibition was inconclusive: -75.7%. For CSc1nc2c(c(=O)n1-c1ccc(C)cc1)SCC2, the activity change (PNC), negative = inhibition was inconclusive: -58.2%. With Cc1ccc(Cn2c(SCC(C)C)nc3c2c(=O)n(C)c(=O)n3C)cc1 the activity change (PNC), negative = inhibition was inconclusive: -30.6%. With CC(=O)c1c(N2CCN(Cc3ccccc3)CC2)[nH]c(-c2ccccc2)nc1=S the activity change (PNC), negative = inhibition was inactive: 26.1%. In the case of COc1cccc(C2CC3(CC(C)(C)NC(=S)N3)Oc3cc(O)ccc32)c1 (stereo not given), the activity change (PNC), negative = inhibition is reported as inconclusive: -40.7%. For CC(C(=O)NC(=O)NCc1ccccc1)N1C(=O)c2ccccc2C1=O (stereo not given), the activity change (PNC), negative = inhibition was inactive: 3.12%. In the case of CC(=O)Nc1ccc(-c2nnc(SCC(=O)c3ccc4c(c3)Cc3ccccc3-4)n2C)cc1, the activity change (PNC), negative = inhibition is reported as inconclusive: -30.8%. With CCCc1nc(SCc2cccnc2)c2c(=O)n(C)c(=O)n(C)c2n1 the activity change (PNC), negative = inhibition was inactive: -21.8%. For S=c1[nH]nc(COc2ccccc2)n1/N=C/c1cccnc1, the activity change (PNC), negative = inhibition was inactive: 27.1%. With CN(C)c1nc(N(C)C)nc(N2CCCCC2)n1 the activity change (PNC), negative = inhibition was inconclusive: -62.8%. For Cc1ccc2nc(-c3ccc4c(c3)OCCO4)cc(C(=O)O)c2c1, the activity change (PNC), negative = inhibition was inconclusive: -66.7%. In the case of CC(C(=O)Nc1ccccc1F)N1C(=O)c2ccccc2C1=O (stereo not given), the activity change (PNC), negative = inhibition is reported as inconclusive: -56.5%. For CC(C)CC(NC(=O)c1ccc(Cl)cc1)C(=O)O (stereo not given), the activity change (PNC), negative = inhibition was inconclusive: -36.3%. With CCn1c(C(=O)N2CCC(C(=O)N3CCN(c4ccccn4)CC3)CC2)cc2sccc21 the activity change (PNC), negative = inhibition was inconclusive: -35.3%. With Cc1nn(Cc2ccccc2)c2c1C(c1ccco1)C(C#N)=C(N)O2 (stereo not given) the activity change (PNC), negative = inhibition was inconclusive: -43.4%. In the case of CCOC(=O)N1CCN(Cc2nc(N)nc(Nc3ccc(C)cc3)n2)CC1, the activity change (PNC), negative = inhibition is reported as inconclusive: -66.6%. In the case of FC(F)(F)C1=CC(c2ccc(Br)cc2)=NCCN1, the activity change (PNC), negative = inhibition is reported as inactive: -1.46%. For Cc1cccc(NC(=O)COc2nsnc2N2CCOCC2)c1, the activity change (PNC), negative = inhibition was inconclusive: -59.4%. For Cc1cc(Cl)ccc1NC(=O)Nc1c(C)n(-c2ccccc2)c(=O)n1C, the activity change (PNC), negative = inhibition was inconclusive: -35.7%. For Cc1cc2cc(CNC(=O)c3ccc4c(c3)OCO4)ccc2n1C, the activity change (PNC), negative = inhibition was inactive: -13.3%. For CCOC(=O)c1c(NC(NC(C)=O)C(Cl)(Cl)Cl)sc2c1CCCC2 (stereo not given), the activity change (PNC), negative = inhibition was inconclusive: -46.2%. For COc1ccc(CC(=O)Nc2nc3ccccc3s2)cc1S(=O)(=O)N1CCOCC1, the activity change (PNC), negative = inhibition was inconclusive: -45%. With Cc1nc(NC(=O)c2ccccc2[N+](=O)[O-])sc1C(=O)N(C)C the activity change (PNC), negative = inhibition was inactive: 14.6%. In the case of CN(C)CCOC(=O)c1cccc(Br)c1, the activity change (PNC), negative = inhibition is reported as inconclusive: -42.3%. For Cc1ccc(C(c2c(C)[nH][nH]c2=O)c2c(C)[nH][nH]c2=O)cc1[N+](=O)[O-], the activity change (PNC), negative = inhibition was inactive: 37.6%. With O=C(O)c1ccccc1C(=O)Nc1nccs1 the activity change (PNC), negative = inhibition was inactive: 28.9%. With Cc1cc(-c2ccc(N3CCOCC3)cc2)nc2ccccc12 the activity change (PNC), negative = inhibition was inconclusive: -32%. With O=C(Nc1nn(Cc2ccccc2F)cc1Br)c1cccs1 the activity change (PNC), negative = inhibition was inconclusive: -39.1%. With Cc1ccc(NC(=S)NC2CCN(Cc3ccccc3)CC2)c(C)c1 the activity change (PNC), negative = inhibition was inconclusive: -39.6%. In the case of COc1ccc(CCNC(=O)c2nnn(CC(=O)Nc3ccccc3C)c2N)cc1OC, the activity change (PNC), negative = inhibition is reported as inconclusive: -42%. For CN1/C(=C\C(=O)c2cccnc2Cl)C(C)(C)c2ccccc21, the activity change (PNC), negative = inhibition was inactive: 78%. For COc1ccc(-c2noc(CCC(=O)Nc3cc(OC)ccc3OC)n2)cc1, the activity change (PNC), negative = inhibition was inactive: 17.4%. For Cn1cnnc1SC1c2cccc3cccc(c23)C1NS(=O)(=O)c1ccc(Cl)cc1 (stereo not given), the activity change (PNC), negative = inhibition was inconclusive: -32.2%. For NCCCCCNC(=O)/C=N\O, the activity change (PNC), negative = inhibition was inconclusive: -74.4%. In the case of Cc1ccc(C(=O)NC(=S)Nc2cccc(NC(=O)c3ccccc3Cl)c2)cc1[N+](=O)[O-], the activity change (PNC), negative = inhibition is reported as inconclusive: -32.9%. With Cc1ccc2c(c1)-c1cc(C)nn1C(c1ccc3c(c1)OCO3)N2 (stereo not given) the activity change (PNC), negative = inhibition was inconclusive: -48.9%. In the case of COc1ccccc1NC(=O)CN1CCN(CC(=O)Nc2ccc3c(c2)OCO3)CC1, the activity change (PNC), negative = inhibition is reported as inactive: 16.9%. With COc1ccc(-n2nnc3c(=O)n(CC(=O)OCc4ccccc4)cnc32)cc1 the activity change (PNC), negative = inhibition was inconclusive: -60.2%. For Cc1ccc(N2C(=O)CC(Sc3nc(-c4ccccc4)c4cc(Cl)ccc4n3)C2=O)c(C)c1 (stereo not given), the activity change (PNC), negative = inhibition was inactive: 31.2%. For CN1CCN(C(=O)NC2CCCCC2)CC1, the activity change (PNC), negative = inhibition was inconclusive: -48.2%. For COc1ccc(C2C(C#N)=C(C)NC3=C2C(=O)c2ccccc23)cc1 (stereo not given), the activity change (PNC), negative = inhibition was inactive: 26.6%. In the case of Cc1ccc(C2CC(=O)Nc3cc4c(cc32)OCO4)o1 (stereo not given), the activity change (PNC), negative = inhibition is reported as inactive: -17.6%. In the case of O=C(CN1C(=O)c2cccc3cccc1c23)NCc1cccnc1, the activity change (PNC), negative = inhibition is reported as inactive: 10.7%. With CCCCn1c(N2CCC(Cc3ccccc3)CC2)nc2c1c(=O)[nH]c(=O)n2C the activity change (PNC), negative = inhibition was inconclusive: -48.9%. For CCCc1nc(SCC(=O)N2CCC(Cc3ccccc3)CC2)c2c(=O)n(C)c(=O)n(C)c2n1, the activity change (PNC), negative = inhibition was inconclusive: -50.2%. In the case of COc1ccc(-n2c(N)c(C(=O)NCc3ccco3)c3nc4ccccc4nc32)cc1, the activity change (PNC), negative = inhibition is reported as inconclusive: -33.4%. In the case of Nc1nc(F)nc2c1ncn2[C@@H]1O[C@H](CO)[C@@H](O)[C@@H]1O, the activity change (PNC), negative = inhibition is reported as inconclusive: -40%. In the case of O=C(COc1ccc(Cl)cc1)NCc1nnc(SCC(=O)NC2CCCC2)o1, the activity change (PNC), negative = inhibition is reported as inactive: -2.62%. For COCCN(Cc1cc2cc(C)cc(C)c2nc1Cl)C(=O)Nc1ccccc1, the activity change (PNC), negative = inhibition was inactive: 60.5%. With Cc1ccc(NC(=S)N(Cc2ccco2)C2CCN(C(C)C)CC2)cc1 the activity change (PNC), negative = inhibition was inactive: -15.6%. For Cc1ccccc1-n1c(SCc2ccccn2)nc2n[nH]c(C)c2c1=N, the activity change (PNC), negative = inhibition was inconclusive: -33%. In the case of COc1ccc(-c2cc(OC)c3c(C)oc(C)c3c(=O)c2)cc1OC, the activity change (PNC), negative = inhibition is reported as inactive: 7.13%. For CC1(C)Cc2c(ccc3ccccc23)/C(=C/C#N)N1, the activity change (PNC), negative = inhibition was inconclusive: -61.9%. For Cc1ccc(-n2nnnc2SCC(=O)NNC(=O)c2ccco2)cc1C, the activity change (PNC), negative = inhibition was inactive: 22.7%. With CC1CCCCN1C(=O)CSc1nnc(-c2ccc(Cl)s2)o1 (stereo not given) the activity change (PNC), negative = inhibition was inconclusive: -31.7%. With COCCOCC(O)CN1CCN(c2ccccc2)CC1 (stereo not given) the activity change (PNC), negative = inhibition was inconclusive: -50.9%. In the case of Cc1cccn2cc(CNc3ccccc3)nc12, the activity change (PNC), negative = inhibition is reported as inconclusive: -42.7%. For Cc1nc2ccc(S(=O)(=O)NCC(=O)N3CCc4ccccc4C3)cc2s1, the activity change (PNC), negative = inhibition was active: -97.3%. With Cc1c(C(=O)Nc2ccccc2)sc2nc[nH]c(=O)c12 the activity change (PNC), negative = inhibition was inconclusive: -59.7%. In the case of O=C(COC(=O)c1ccccc1S(=O)(=O)N1CCCCC1)NCC(F)(F)F, the activity change (PNC), negative = inhibition is reported as inactive: -3.83%. With O=C(CSc1nnnn1C1CCCC1)NCc1ccc2c(c1)OCO2 the activity change (PNC), negative = inhibition was inconclusive: -39%. With COc1ccc(N=c2cc(-c3ccc(OC)cc3)oc3ccccc23)cc1 the activity change (PNC), negative = inhibition was inconclusive: -49.7%. In the case of COc1ccc(Cl)cc1NC(=O)C1CCCO1 (stereo not given), the activity change (PNC), negative = inhibition is reported as inactive: -11.7%. In the case of O=C(CSc1nnc(-c2ccco2)n1CC1CCCO1)N1CCCCC1 (stereo not given), the activity change (PNC), negative = inhibition is reported as inconclusive: -77.8%. In the case of Cc1cc(C)n(S(=O)(=O)c2cc(C(=O)O)c(Cl)cc2Cl)n1, the activity change (PNC), negative = inhibition is reported as inconclusive: -30.6%. With CCOC(=O)c1c(-c2ccc(OC)cc2)csc1NC(=O)COc1ccc2c(C)cc(=O)oc2c1 the activity change (PNC), negative = inhibition was inactive: 122%. For CCN(CC)C(=O)c1sc(N)c(C(=O)OC(C)C)c1C, the activity change (PNC), negative = inhibition was inactive: 21%. For COc1cc(C2C(C#N)=C(N)N(c3sc4c(c3C#N)CCCC4)C3=C2C(=O)CC(C)(C)C3)cc(OC)c1OC (stereo not given), the activity change (PNC), negative = inhibition was inactive: -20.8%. With Cc1ccc(NC(=O)Cn2c(O)c(N=NS(=O)(=O)c3ccc(C)cc3)c3ccccc32)cc1 the activity change (PNC), negative = inhibition was inconclusive: -45%. In the case of O=C(CSc1nc(-c2ccccc2)cc(C(F)(F)F)n1)NCc1ccco1, the activity change (PNC), negative = inhibition is reported as inconclusive: -47%. For Cc1ccccc1NC1C=CS(=O)(=O)C1 (stereo not given), the activity change (PNC), negative = inhibition was inconclusive: -48.7%. In the case of Cc1ccc(S(=O)(=O)N2CCCOC2CNC(=O)C(=O)NCCc2c[nH]c3ccccc23)cc1 (stereo not given), the activity change (PNC), negative = inhibition is reported as inactive: 4.26%. With Cc1ccc(C(=O)CSc2nnc(-c3c[nH]c4ccccc34)o2)cc1 the activity change (PNC), negative = inhibition was inactive: 0.337%. For COc1ccc(CN(C(=O)CN2C(=O)COc3ccccc32)C2CCCC2)c(OC)c1, the activity change (PNC), negative = inhibition was inconclusive: -48%. For S=C(Nc1cccc(Br)c1)c1ccccc1, the activity change (PNC), negative = inhibition was inconclusive: -31.5%. For COc1cc(OC)cc(C(=O)NCCSCc2ccco2)c1, the activity change (PNC), negative = inhibition was active: -94.6%. For O=C(Nc1cccc2nsnc12)c1cccnc1, the activity change (PNC), negative = inhibition was inactive: 27.6%. For Cc1cc(N2CCCCCC2)nc2ccccc12, the activity change (PNC), negative = inhibition was inconclusive: -35.4%. With CC(C)CC(=O)Nc1cccc(C(=O)Nc2ccccc2C(=O)O)c1 the activity change (PNC), negative = inhibition was inactive: 10.9%. With COCCCN=C1NN=C(c2cc(C)n(-c3ccccc3)c2C)CS1 the activity change (PNC), negative = inhibition was inconclusive: -31.3%. With CCOC(=O)N1CCN(C(=O)c2ccc3c(=O)n(CC4CCCO4)c(=S)[nH]c3c2)CC1 (stereo not given) the activity change (PNC), negative = inhibition was inactive: -13.4%. In the case of CCOC(=O)CCC(NC(=O)CCCCC(=O)NC(CCC(=O)OCC)C(=O)OCC)C(=O)OCC (stereo not given), the activity change (PNC), negative = inhibition is reported as inconclusive: -50.5%. For COc1ccc2c(c1OC)C(=O)N1C2SC[C@H]1C(=O)NC1CC(C)(C)NC(C)(C)C1 (stereo not given in full), the activity change (PNC), negative = inhibition was inconclusive: -41.1%. For O=C(Cc1ccccc1)Nc1nnc(-c2ccco2)s1, the activity change (PNC), negative = inhibition was inactive: 8.19%. For CCOC(=O)C1CCCN(C(=O)c2cc3nc(-c4cccc(OC)c4)cc(C(F)(F)F)n3n2)C1 (stereo not given), the activity change (PNC), negative = inhibition was active: -80.2%. With Cc1ccccc1Nc1nc(N)nc(COC(=O)c2ccc(S(=O)(=O)N(C)C)cc2)n1 the activity change (PNC), negative = inhibition was inconclusive: -36.6%. In the case of CC/C(O)=N\S(=O)(=O)c1ccc(N=NN(C)C)cc1, the activity change (PNC), negative = inhibition is reported as inconclusive: -49.8%. With CCC1CCCCN1C(=O)CSc1nc2ccsc2c(=O)n1Cc1ccccc1 (stereo not given) the activity change (PNC), negative = inhibition was inactive: 9.44%. For O=C(NCC(=O)N(CCc1ccccc1)C(C(=O)NC1CCCCC1)c1ccncc1)c1ccco1 (stereo not given), the activity change (PNC), negative = inhibition was inconclusive: -54.3%.
